# This is one part of the list. Most values lie at the level of the controls, where differences are scatter.
# By UniProt entry, the sequences of proteins in these tests, tags left out.
# UniProt Q92736, whole entry: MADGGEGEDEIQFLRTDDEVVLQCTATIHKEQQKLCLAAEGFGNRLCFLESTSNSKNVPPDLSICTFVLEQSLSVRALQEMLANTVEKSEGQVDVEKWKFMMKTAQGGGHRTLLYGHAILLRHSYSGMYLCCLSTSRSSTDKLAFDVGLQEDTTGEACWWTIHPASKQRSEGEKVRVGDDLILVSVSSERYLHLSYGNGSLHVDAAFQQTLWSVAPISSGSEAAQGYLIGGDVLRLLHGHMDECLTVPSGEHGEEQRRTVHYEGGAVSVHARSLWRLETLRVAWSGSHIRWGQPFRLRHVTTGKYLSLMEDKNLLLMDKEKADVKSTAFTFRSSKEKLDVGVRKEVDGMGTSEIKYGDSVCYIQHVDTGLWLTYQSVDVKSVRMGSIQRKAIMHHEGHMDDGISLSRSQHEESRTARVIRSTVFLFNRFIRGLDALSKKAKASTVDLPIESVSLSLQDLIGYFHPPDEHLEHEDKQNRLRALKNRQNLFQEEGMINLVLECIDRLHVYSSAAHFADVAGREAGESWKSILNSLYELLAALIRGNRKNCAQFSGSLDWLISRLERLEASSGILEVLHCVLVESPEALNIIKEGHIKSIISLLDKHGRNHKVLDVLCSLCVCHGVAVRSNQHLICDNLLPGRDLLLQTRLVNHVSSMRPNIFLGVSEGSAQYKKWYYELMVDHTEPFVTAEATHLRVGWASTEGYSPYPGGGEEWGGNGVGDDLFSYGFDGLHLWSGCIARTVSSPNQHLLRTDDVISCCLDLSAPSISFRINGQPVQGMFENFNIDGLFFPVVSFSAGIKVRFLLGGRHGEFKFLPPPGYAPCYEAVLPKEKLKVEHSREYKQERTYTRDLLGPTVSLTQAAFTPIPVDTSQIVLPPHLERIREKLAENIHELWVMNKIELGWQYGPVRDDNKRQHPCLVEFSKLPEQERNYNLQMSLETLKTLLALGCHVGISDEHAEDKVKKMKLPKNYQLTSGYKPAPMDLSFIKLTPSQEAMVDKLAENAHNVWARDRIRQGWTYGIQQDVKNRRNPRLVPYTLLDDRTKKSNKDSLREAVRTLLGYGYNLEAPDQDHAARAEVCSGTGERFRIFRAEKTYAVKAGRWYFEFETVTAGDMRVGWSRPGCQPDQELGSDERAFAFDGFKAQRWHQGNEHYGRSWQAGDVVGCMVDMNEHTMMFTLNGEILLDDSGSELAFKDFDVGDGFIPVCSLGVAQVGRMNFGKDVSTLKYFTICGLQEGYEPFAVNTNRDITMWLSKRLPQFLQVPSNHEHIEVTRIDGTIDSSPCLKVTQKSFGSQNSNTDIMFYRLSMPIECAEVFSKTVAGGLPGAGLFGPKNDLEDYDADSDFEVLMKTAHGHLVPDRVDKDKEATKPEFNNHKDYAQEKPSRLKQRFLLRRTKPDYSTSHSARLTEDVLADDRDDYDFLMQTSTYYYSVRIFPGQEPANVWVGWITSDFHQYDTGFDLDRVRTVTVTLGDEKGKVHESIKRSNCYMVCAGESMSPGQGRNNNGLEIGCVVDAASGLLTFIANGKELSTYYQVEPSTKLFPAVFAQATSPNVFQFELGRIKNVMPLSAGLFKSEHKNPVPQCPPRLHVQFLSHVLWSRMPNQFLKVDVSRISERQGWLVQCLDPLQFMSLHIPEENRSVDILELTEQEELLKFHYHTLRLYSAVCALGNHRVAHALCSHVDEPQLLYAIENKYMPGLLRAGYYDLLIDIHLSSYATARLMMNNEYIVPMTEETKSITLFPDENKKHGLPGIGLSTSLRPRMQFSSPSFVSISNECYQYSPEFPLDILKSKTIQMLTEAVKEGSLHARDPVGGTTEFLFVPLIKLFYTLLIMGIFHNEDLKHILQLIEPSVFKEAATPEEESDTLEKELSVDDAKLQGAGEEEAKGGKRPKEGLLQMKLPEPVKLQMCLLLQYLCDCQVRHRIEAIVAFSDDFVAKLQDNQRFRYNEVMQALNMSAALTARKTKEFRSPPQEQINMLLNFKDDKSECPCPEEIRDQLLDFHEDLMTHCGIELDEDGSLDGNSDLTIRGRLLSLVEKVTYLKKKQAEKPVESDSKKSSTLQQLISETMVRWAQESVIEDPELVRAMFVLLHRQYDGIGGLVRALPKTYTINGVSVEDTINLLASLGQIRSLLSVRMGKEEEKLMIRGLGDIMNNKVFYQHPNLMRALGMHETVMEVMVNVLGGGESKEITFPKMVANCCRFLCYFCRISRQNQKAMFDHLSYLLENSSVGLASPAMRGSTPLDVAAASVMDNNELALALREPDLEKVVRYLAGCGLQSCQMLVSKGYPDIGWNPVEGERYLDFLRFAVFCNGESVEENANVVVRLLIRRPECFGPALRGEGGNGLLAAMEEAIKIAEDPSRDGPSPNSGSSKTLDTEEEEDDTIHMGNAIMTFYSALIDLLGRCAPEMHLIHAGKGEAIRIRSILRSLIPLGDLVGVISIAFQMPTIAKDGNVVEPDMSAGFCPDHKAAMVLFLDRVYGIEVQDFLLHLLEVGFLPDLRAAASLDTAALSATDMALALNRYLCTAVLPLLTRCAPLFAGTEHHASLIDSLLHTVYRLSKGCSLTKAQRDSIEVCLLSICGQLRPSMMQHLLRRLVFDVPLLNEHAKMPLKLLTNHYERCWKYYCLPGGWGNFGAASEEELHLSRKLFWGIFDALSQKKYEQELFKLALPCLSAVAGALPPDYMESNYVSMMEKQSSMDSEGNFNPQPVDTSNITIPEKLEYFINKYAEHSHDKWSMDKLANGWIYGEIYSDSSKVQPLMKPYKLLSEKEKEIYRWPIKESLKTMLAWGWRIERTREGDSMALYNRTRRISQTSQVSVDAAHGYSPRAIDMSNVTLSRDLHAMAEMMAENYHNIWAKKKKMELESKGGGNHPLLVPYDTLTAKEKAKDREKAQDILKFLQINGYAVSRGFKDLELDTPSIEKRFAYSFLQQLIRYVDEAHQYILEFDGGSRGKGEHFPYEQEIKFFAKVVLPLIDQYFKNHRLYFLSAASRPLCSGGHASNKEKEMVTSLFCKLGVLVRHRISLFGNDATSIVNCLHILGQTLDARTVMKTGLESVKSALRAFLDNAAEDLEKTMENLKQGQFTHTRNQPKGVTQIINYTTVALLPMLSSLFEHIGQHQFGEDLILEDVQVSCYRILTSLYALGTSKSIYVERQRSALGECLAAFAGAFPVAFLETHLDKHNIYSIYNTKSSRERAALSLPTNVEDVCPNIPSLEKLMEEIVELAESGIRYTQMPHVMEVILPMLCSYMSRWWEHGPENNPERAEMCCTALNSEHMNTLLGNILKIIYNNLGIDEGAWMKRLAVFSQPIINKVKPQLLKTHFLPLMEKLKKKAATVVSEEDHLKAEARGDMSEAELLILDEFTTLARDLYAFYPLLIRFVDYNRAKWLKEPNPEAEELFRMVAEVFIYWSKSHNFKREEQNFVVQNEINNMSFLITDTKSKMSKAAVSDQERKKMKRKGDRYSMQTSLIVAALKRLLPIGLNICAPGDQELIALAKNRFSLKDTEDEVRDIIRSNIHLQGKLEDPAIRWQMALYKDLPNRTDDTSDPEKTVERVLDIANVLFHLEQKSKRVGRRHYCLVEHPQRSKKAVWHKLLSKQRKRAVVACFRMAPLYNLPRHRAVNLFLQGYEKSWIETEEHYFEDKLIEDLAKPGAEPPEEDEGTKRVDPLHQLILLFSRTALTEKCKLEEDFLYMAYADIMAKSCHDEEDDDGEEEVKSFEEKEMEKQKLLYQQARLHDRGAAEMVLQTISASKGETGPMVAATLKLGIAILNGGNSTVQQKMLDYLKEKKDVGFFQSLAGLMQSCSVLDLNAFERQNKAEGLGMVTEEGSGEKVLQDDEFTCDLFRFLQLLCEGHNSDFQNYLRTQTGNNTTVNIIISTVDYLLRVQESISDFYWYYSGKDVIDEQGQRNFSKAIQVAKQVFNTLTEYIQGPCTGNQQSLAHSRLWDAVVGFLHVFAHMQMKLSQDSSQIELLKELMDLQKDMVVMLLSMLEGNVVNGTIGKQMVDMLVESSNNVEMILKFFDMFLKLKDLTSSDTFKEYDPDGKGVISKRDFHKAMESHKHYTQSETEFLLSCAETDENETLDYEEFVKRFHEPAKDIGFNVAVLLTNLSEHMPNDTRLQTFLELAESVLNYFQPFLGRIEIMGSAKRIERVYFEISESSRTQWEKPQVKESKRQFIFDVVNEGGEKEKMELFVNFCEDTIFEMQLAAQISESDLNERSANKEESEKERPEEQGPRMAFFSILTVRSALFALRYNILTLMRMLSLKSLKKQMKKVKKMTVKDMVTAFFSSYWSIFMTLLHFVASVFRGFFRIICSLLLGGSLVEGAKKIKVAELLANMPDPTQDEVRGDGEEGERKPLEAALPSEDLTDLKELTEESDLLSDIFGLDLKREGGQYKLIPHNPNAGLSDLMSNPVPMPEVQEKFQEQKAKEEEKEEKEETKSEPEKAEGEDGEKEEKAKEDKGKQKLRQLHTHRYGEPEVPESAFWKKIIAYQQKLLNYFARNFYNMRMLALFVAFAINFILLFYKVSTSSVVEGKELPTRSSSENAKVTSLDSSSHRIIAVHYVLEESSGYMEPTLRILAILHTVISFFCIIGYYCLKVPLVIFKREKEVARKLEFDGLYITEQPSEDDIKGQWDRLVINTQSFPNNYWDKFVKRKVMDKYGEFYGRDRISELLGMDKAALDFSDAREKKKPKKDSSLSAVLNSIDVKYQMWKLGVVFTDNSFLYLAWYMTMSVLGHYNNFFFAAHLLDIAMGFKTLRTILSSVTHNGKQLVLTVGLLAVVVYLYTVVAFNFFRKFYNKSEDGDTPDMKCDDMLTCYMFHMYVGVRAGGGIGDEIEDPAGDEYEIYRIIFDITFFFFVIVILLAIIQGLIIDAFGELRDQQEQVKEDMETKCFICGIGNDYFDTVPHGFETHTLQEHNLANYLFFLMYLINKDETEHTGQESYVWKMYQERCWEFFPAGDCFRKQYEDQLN
# Biological target: UniProt Q92736
# Assay: log2 fold change of tryptic peptide abundance, ligand vs vehicle (limited proteolysis) (log2 ratio); higher = more trypsin-susceptible (destabilized)
# Conditions: peptide sequence: KKMELESK; peptide start residue: 2856; ligand concentration: 5 uM; sample: K562 cleared lysate
smiles,measurement,value
Cc1nc(Nc2ncc(C(=O)Nc3c(C)cccc3Cl)s2)cc(N2CCN(CCO)CC2)n1 [dasatinib],log2 fold change,0.0429

# — the supplement of paper PMC12819154, “High-throughput peptide-centric local stability assay extends protein–ligand identification to membrane proteins, tissues and bacteria” (Nature Structural & Molecular Biology, 2025)
